Taken from: PubChem BioAssay AID504791 (Drosophila RNAi Screening Center, 2011)
Screen: 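Genes of the fly required for silencing by miRNA, siRNA or endo-siRNA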 (primary screen). Cells: Drosophila S2-derived reporter cells. Knock-down reagent: long dsRNA against Drosophila genes, about 150-250 ng dsRNA per well (siRNA assay); about 80-120 ng (miRNA assay). Timing: about 5 days (siRNA assay); about 4 days (miRNA assay). Conditions: copper sulfate induction of reporters: 25 µM (siRNA assay); 200 mM stated (miRNA assay), 1-2 days before reading. Measured: 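Dual luciferase assay: Renilla to firefly signal ratio in each well, scaled to the mean ratio of its plate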. Units: stable assay Renilla, run 1 in luminescence; stable assay firefly, run 1 in luminescence. Call rule: 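First-pass picks had plate-scaled ratios over 1.5 for the siRNA assay, over 1.6 for the miRNA assay, or under 0.6; two distinct dsRNAs had to score alike on retest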.
In all, the deposit lists about 23,000 reagents; below is a random part of those with a known target gene and a result. Of all reagents, 199 (0.86%) were called active. 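Plate-scaled ratios behind the calls are not deposited; printed light signals are raw; many rows marked increased or decreased are still called inactive.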 Reagent sequences are not shown. Not given: the direction of the score.

CR46300 [DRSC12467]
- stable assay Renilla, run 1: 6010
- stable assay firefly, run 1: 5.40e5
- call: inactive

lncRNA:CR42862 [DRSC08348]
- stable assay Renilla, run 1: 7550
- stable assay firefly, run 1: 4.21e5
- call: inactive

ND-23 [DRSC15526]
- stable assay Renilla, run 1: 7852
- stable assay firefly, run 1: 4.04e5
- call: inactive

CG18130 [DRSC19790]
- stable assay Renilla, run 1: 5918
- stable assay firefly, run 1: 5.61e5
- call: inactive

Rnp4F [DRSC18706]
- stable assay Renilla, run 1: 8790
- stable assay firefly, run 1: 6.79e5
- call: inactive

mbm [DRSC00319]
- stable assay Renilla, run 1: 10996
- stable assay firefly, run 1: 5.25e5
- call: inactive

scu [DRSC20369]
- stable assay Renilla, run 1: 5979
- stable assay firefly, run 1: 4.11e5
- call: inactive

hng2 [DRSC16412]
- stable assay Renilla, run 1: 7959
- stable assay firefly, run 1: 4.40e5
- call: inactive

CG12994 [DRSC19192]
- stable assay Renilla, run 1: 2675
- stable assay firefly, run 1: 3.26e5
- call: inactive

CG12994 [DRSC19514]
- stable assay Renilla, run 1: 6446
- stable assay firefly, run 1: 6.62e5
- call: inactive

Lon [DRSC11049]
- stable assay Renilla, run 1: 9719
- stable assay firefly, run 1: 4.76e5
- call: inactive

CG34001 [DRSC09042]
- stable assay Renilla, run 1: 4235
- stable assay firefly, run 1: 3.57e5
- call: inactive

Targets above whose gene name begins with C or c (5):
CR46300 [DRSC12467]
- stable assay Renilla, run 1: 6010
- stable assay firefly, run 1: 5.40e5
- call: inactive

CG18130 [DRSC19790]
- stable assay Renilla, run 1: 5918
- stable assay firefly, run 1: 5.61e5
- call: inactive

CG12994 [DRSC19192]
- stable assay Renilla, run 1: 2675
- stable assay firefly, run 1: 3.26e5
- call: inactive

CG12994 [DRSC19514]
- stable assay Renilla, run 1: 6446
- stable assay firefly, run 1: 6.62e5
- call: inactive

CG34001 [DRSC09042]
- stable assay Renilla, run 1: 4235
- stable assay firefly, run 1: 3.57e5
- call: inactive
